System: GABA/benzodiazepine receptor-chloride ionopore complex (GBR complex)
Assay: Dissociation kinetics of [35S]TBPS in rat cerebral cortical membranes
Format: binding
Method: An assay was performed to determine the effect of pentobarbital on the dissociation kinetics of [^35 S]TBPS in rat cerebral cortical membranes. This assay was performed in accordance with the procedures outlined above. […] Dissociation of bound [^35 ]TBPS was initiated by 2 micromolar TBPS in all cases.

[1] = [35S]TBPS dissociation, rat cortex, 30 nM Na pentobarbital, 300 nM alphaxalone, 20 nM a-OH-DHP
[2] = [35S]TBPS dissociation, rat cortex, Na pentobarbital, 300 nM alphaxalone, 20 nM a-OH-DHP

CC(=O)[C@H]1CC[C@H]2[C@@H]3CC[C@H]4C[C@H](O)CC[C@]4(C)[C@H]3C(=O)C[C@]12C [ALPHAXALONE, 5α-PREGNAN-3α-OL-11.20-DIONE]
biphasic dissociation mechanism of [35S]TBPS (FIGS. 2A, 2B, pentobarbital 30 micromolar, alphaxalone 300 nanomolar, 5-alpha-pregnan-3-alpha-hydroxy-20-one 20 nanomolar): absent
t1/2, R (rapidly dissociating component) [1]: 4.9 ± 1
t1/2, S (slowly dissociating component) [1]: 67 ± 12
k-1, R (rapidly dissociating component) [2]: 0.180 ± 0.040 min⁻¹
k-1, S (slowly dissociating component) [2]: 0.0120 ± 0.003 min⁻¹
Total percentage of specific sites, R (rapidly dissociating component, Na pentobarbital (**P < 0.01 vs control), 300 nM alphaxalone, 20 nM a-OH-DHP): 34 ± 5%
influence on the dissociation kinetics of [35S]TBPS binding (rat cerebral cortex): do not influence the dissociation kinetics
Total percentage of specific sites, S (slowly dissociating component, Na pentobarbital (*P < 0.05 vs control), 300 nM alphaxalone, 20 nM a-OH-DHP): 73 ± 4%

Reference: patent USRE35517E, “Method, compositions, and compounds for modulating brain excitability” (priority 1992, dated 1997)
